This is an account of results in PubChem BioAssay (EPA / NIEHS).

By UniProt entry, the sequences of proteins in these tests, tags left out. Where a name states a change or a piece, a line headed by the entry shows the natural chain unless it says otherwise.
UniProt P37231: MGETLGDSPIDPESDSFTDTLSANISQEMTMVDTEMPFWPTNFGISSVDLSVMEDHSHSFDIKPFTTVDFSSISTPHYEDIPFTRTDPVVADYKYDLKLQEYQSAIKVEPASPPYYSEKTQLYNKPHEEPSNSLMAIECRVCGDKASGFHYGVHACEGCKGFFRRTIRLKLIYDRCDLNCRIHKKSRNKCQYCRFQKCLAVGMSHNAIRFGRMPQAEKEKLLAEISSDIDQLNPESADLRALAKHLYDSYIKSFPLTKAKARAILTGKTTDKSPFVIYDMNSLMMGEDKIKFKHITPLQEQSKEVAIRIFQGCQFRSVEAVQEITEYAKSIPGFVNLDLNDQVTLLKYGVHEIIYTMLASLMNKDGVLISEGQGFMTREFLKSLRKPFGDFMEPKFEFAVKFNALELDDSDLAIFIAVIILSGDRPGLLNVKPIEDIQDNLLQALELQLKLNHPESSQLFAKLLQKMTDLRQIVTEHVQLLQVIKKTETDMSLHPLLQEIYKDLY

For some of these results: Most of the hits are listed elsewhere, so they are rarer here than in the full data. Results filed as inconclusive are left out. The entries are a selection whose mix differs from that of the whole data set. Some compounds were tested as several samples or in several runs, with calls that do not always agree. The source made the active and inactive calls. How the source made its calls, unless noted: active means hit-call score of the fitted dose curve at least 0.9, where 1 is the maximum; inactive means score below 0.9.

Broadly, the AC50 is the concentration at which the activity in the assay is half-maximal.

Read-out in assay [1]: ABC Transporter (ABCB11), ABCB11 (gene 8647)
As to the kind of experiment: LTEA_HepaRG_ABCB11: Life Technologies and Expression Analysis (LTEA) Assay for ABC Transporter (ABCB11) using HepaRG (AID 2283463). The settings on record: actives raise or lower the signal; mRNA level, 48 h. Put shortly: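 ABCB11 transcript levels quantified by TaqMan qRT-PCR against three housekeeping genes after 48 h chemical exposure of HepaRG cultures. Concentrations up to 100 uM in half-log steps, 0.5% DMSO vehicle; both induction and suppression scored.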

Read-out in assay [2]: Insulin Like Growth Factor 1 (IGF1), IGF1 (gene 3479)
The assay is described as follows: LTEA_HepaRG_IGF1: Life Technologies and Expression Analysis (LTEA) Assay for Insulin Like Growth Factor 1 (IGF1) using HepaRG (AID 2283506). As to conditions: actives raise or lower the signal; mRNA level, 48 h. The gist of the method: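 Cells are thawed, plated and cultured 48 h, then exposed in duplicate to chemical (highest 100 uM, half-log steps, 0.5% DMSO) for another 48 h. Total RNA is analysed by Fluidigm qRT-PCR for IGF1 expression relative to vehicle.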

Read-out in assay [3]: Apolipoprotein A-V (APOA5) gene, APOA5 (gene 116519)
The assay is described as follows: LTEA_HepaRG_APOA5: Life Technologies and Expression Analysis (LTEA) Assay for Apolipoprotein A-V (APOA5) gene using HepaRG (AID 2283474). The settings on record: actives raise or lower the signal; mRNA level, 48 h. The gist of the method:
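Concentration-response of APOA5 expression in HepaRG: eight half-log doses to 100 uM, 48 h, qRT-PCR normalized to ACTB/GAPDH/POLR2A, bidirectional fitting with 0.5% DMSO as baseline.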

Read-out in assay [4]: DNA damage-inducible transcript 3 (DDIT3), DDIT3 (gene 1649)
As to the kind of experiment: LTEA_HepaRG_DDIT3: Life Technologies and Expression Analysis (LTEA) Assay for DNA damage-inducible transcript 3 (DDIT3) using HepaRG (AID 2283488). As to conditions: actives raise or lower the signal; mRNA level, 48 h. Put shortly: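 Cells are human HepaRG liver cells treated for 48 h with eight half-log concentrations up to 100 uM in 0.5% DMSO. Transcript levels come from qRT-PCR normalized to three housekeeping genes, with activity fitted in both directions relative to vehicle.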

Read-out in assay [5]: NAD(P)H dehydrogenase [quinone] 1 (NQO1), NQO1 (gene 1728)
The assay is described as follows: LTEA_HepaRG_NQO1: Life Technologies and Expression Analysis (LTEA) Assay for NAD(P)H dehydrogenase [quinone] 1 (NQO1) using HepaRG (AID 2283526). As to conditions: actives raise or lower the signal; mRNA level, 48 h. Put shortly: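 Transcript induction or suppression is quantified by qRT-PCR in human HepaRG liver cells dosed for 48 hours. Eight half-log concentrations topping at 100 uM are used, with 0.5% DMSO as vehicle and baseline.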

Read-out in assay [6]: ABC Transporter (ABCC3), ABCC3 (gene 8714)
The assay is described as follows: LTEA_HepaRG_ABCC3: Life Technologies and Expression Analysis (LTEA) Assay for ABC Transporter (ABCC3) using HepaRG (AID 2283462). The settings on record: actives raise or lower the signal; mRNA level, 48 h. The gist of the method: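 Transcriptional change of ABCC3 in HepaRG after 48 h treatment, determined by qRT-PCR normalized to endogenous controls. Concentrations spanned eight half-log steps to 100 uM in 0.5% DMSO.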

Read-out in assay [7]: Potassium channel subfamily K member 1 (KCNK1), KCNK1 (gene 3775)
As to the kind of experiment: LTEA_HepaRG_KCNK1: Life Technologies and Expression Analysis (LTEA) Assay for Potassium channel subfamily K member 1 (KCNK1) using HepaRG (AID 2283511). The settings on record: actives raise or lower the signal; mRNA level, 48 h. Put shortly:
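KCNK1 transcript measured by TaqMan qRT-PCR against three housekeeping genes, after HepaRG cells were treated 48 h with eight half-log concentrations (top 100 uM, 0.5% DMSO). Curves fitted bidirectionally relative to vehicle.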

A short description of assay [8]: CCTE_Simmons_CellTiterGLO_HEK293T: Viability Assessment in CCTE's Assays for Thyroperoxidase (TPO) Inhibition, Simmons Lab (AID 2283665; active means hit-call score of the fitted dose curve at least 0.9, where 1 is the maximum;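 further: cells exposed to compound for 24 h before readout; actives reduce ATP signal below DMSO vehicle meaning cytotoxicity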). Put shortly:
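Cells were seeded overnight, then exposed to an eight-point series up to 87.5 uM final for 24 hours. CellTiter-Glo reagent was added and luminescence read after 20 min, giving ATP-based viability versus DMSO.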
Background: Cellular ATP, detected with luciferase, serves as a proxy for viable cell number.

The target in assay [9] is Peroxisome proliferator-activated receptor gamma (Homo sapiens) (UniProt P37231). As to the kind of experiment: ATG_hPPARg_XSP2: Attagene TRANS-FACTORIAL Multi-Species (XSP2) HepG2 Assay for human Peroxisome Proliferator-activated Receptor gamma (PPARg) (AID 2283829; active means hit-call score of the fitted dose curve at least 0.9, where 1 is the maximum;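 further: actives raise reporter mRNA above DMSO so AC50 reflects PPARg activation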). The gist of the method: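 Human HepG2 cells carried transiently transfected Gal4 reporter units and were treated with chemical for 24 h alongside androgen-receptor stimulants (3 nM 6-alpha-fluorotestosterone, 1.5 nM norgestrel). Reporter transcripts were detected by RT-PCR with capillary electrophoresis, analysed in the positive direction against DMSO.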

Read-out in assay [10]: Cytochrome P450 (CYP2B6), CYP2B6 (gene 1555)
The assay is described as follows: LTEA_HepaRG_CYP2B6: Life Technologies and Expression Analysis (LTEA) Assay for Cytochrome P450 (CYP2B6) using HepaRG (AID 2283481). As to conditions: actives raise or lower the signal; mRNA level, 48 h. The gist of the method: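 Human HepaRG, 48 h dosing, 0.5% DMSO vehicle, top dose 100 uM. CYP2B6 transcript by qRT-PCR, housekeeping-normalized, bidirectional curve fit.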

Assay [11] in a line: TOX21_p53_BLA_p5_viability: Viability Assessment in the Tox21 HCT-116 p53 Agonism Beta-lactamase Assay, Phase 5 (AID 2283600; active means hit-call score of the fitted dose curve at least 0.9, where 1 is the maximum). Put shortly:
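Here cell health was gauged by ATP levels in wells holding 4000 cells, each treated 16 h with DMSO-delivered compounds at 217-fold dilution; reduced luminescence marked toxicity.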

Read-out in assay [12]: ABC Transporter (ABCB11), ABCB11 (gene 8647)
The assay is described as follows: CLD_ABCB11_6hr: CellzDirect (CLD) Gene Expression Assay for ABC Transporter (ABCB11) at 6 hours (AID 2283675; active means hit-call score of the fitted dose curve at least 0.9, where 1 is the maximum;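 further: hits raise ABCB11 mRNA level so AC50 marks induction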). The gist of the method:
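Read-out was ABCB11 mRNA gain of signal by quantitative nuclease protection assay, relative to 0.2% DMSO vehicle, 6 h post-dose. Cells were primary human hepatocytes from two donors, treated across multiple concentrations; phase-contrast cytotoxicity noted yes/no.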

As for `Cc1nn(-c2cc(NS(C)(=O)=O)c(Cl)cc2Cl)c(=O)n1C(F)F`, the AC50 in [1] was active: 9.92 µM. Further, the compound was called inactive in [2].

Regarding `CCC(CC)Nc1c([N+](=O)[O-])cc(C)c(C)c1[N+](=O)[O-]`, in assay [3], the outcome was inactive.

Turning to `CCC(C)n1c(=O)[nH]c(C)c(Br)c1=O` (stereo not drawn), the AC50 in assay [4] is active: 9.92 µM. For the same compound, the compound was called inactive in assay [5].

For `CC(C)(C)c1cc(O)ccc1O`, the compound was classed as inactive in [6] and in [7]. The figures for the AC50 in [8] and in assay [9] were active: 93.7 µM and active: 68.1 µM, respectively.

With `Cc1c(COC(=O)[C@@H]2[C@H](/C=C(\Cl)C(F)(F)F)C2(C)C)cccc1-c1ccccc1`, in [10], the AC50 was active: 12.6 µM. Also, the call in assay [11] and in [12] was inactive.

Regarding `COC(=O)C=C(C)OP(=O)(OC)OC`, the call in assay [3] was inactive.
